These results are taken from the supplement of paper PMC12578635.

Each structure is given as a SMILES string. ± gives the standard deviation of the averaged measurements. Some of the results follow. Repeats are few or missing, and single values can be far off.

This assay has as its system RAW 264.7 macrophages infected with S. aureus JE2-lux. As to the kind of experiment: host macrophage viability (CellTiter-Fluor) relative to DMSO vehicle; higher = more viable host cells. As to conditions: 10 µM; treatment time 4 h; gentamicin 50 µg/ml.
`CCc1ccc(OCC(=O)Nc2noc(-c3ccc(C)cc3)n2)cc1`: the host macrophage viability amounted to 114%.
`O=C(NCC1COC2(CCCCC2)O1)C(=O)Nc1ccccc1[N+](=O)[O-]` (stereo unspecified): the host macrophage viability amounted to 106%.
Take `Clc1ccc2nc(N3CCc4ccccc4C3)sc2c1`: the host macrophage viability is 105 ± 14%.
To `O=C(CSc1nc2ccc(Br)cc2c2nc3ccccc3n12)Nc1nccs1` belongs 123%; to `COc1cc(OC)c(OC)cc1/C=N\NC(=O)CCC1C(=O)NN=C1C` (stereo unspecified), 102%.
As to `Cc1ccc(NC(=O)CSc2nc3cc4c(cc3cc2C#N)OCO4)c(C)c1`, the host macrophage viability is 139%.
In the case of `Cc1[nH]c2ccccc2c1C(=O)CSc1ncnc2sc3c(c12)CCC3`, the host macrophage viability turned out to be 119%.
As for `CCOC(=O)c1ccccc1NC(=O)CSc1ncnc2c1cnn2-c1ccc(F)cc1`, the host macrophage viability is 121%.
For the compound `O=C(Cn1cccc1-c1nc(-c2ccc(Cl)cc2)cs1)N1CCc2ccccc21`, the host macrophage viability stood at 88.7%.
Regarding `C=CCc1cccc2cc(C(=O)NNC(=O)c3ccc(C)cc3)c(=O)oc12`, the host macrophage viability stood at 106%.
`O=C(Nc1ccc(F)cc1)/C(O)=C1\C(=O)Nc2ccc([N+](=O)[O-])cc21`: the host macrophage viability stood at 120%.
To `COc1ccc(-c2nnc(-c3ccccc3)o2)cc1S(=O)(=O)N1CCc2ccccc2C1` belongs 123%; to `Cc1cccc(Cl)c1NC(=O)CCc1nc(CSc2nc3ccccc3o2)no1`, 128%; to `Cc1cc2c(=O)n(CC(=O)Nc3ccc(F)c(Cl)c3)cnc2s1`, 106%.
Take `Cc1cccc(NC(=O)Cn2c(=O)c3cnc(-c4ccccc4)nc3n(C)c2=O)n1`: the host macrophage viability amounted to 117%.
To `O=C(CSc1nc2c(oc3ccccc32)c(=O)n1Cc1cccs1)NCc1ccc(F)cc1` belongs 122%; to `CC(=O)Nc1c(-c2ccc(Cl)cc2)c(C)nn1-c1ccc(C(=O)Nc2nccs2)cc1`, 114%; to `Cn1c(=O)c2c(nc(SCC(=O)Nc3sc4c(c3C#N)CCCC4)n2C)n(C)c1=O`, 105%.
Consider `Cc1cc(F)ccc1NC(=O)Cn1cccc1-c1nc(-c2ccccc2)cs1`, for which the host macrophage viability is 81.9%.
Under `O=C(O)CC1SC(=O)N(c2ccccc2)C1=O` (stereo unspecified) stands 112%.
Take `O=C(Cn1c(=O)c2ccccc2n2nncc12)NCc1ccccc1Cl`: the host macrophage viability came out at 113%.
As to `Cc1ccc2c(c1)C1CC(C)(O2)N(c2ccc(C(=O)O)cc2)C(=O)N1` (stereo unspecified), the host macrophage viability came to 108%.
Under `COc1ccc(-c2ccnc3[nH]n(-c4nc(C)cc(C)n4)c(=O)c23)cc1` stands 115%.
`CCOC(=O)c1cc(C)nc2c1c(=O)n(Cc1ccccc1Cl)c(=O)n2C`: the host macrophage viability stood at 102%.
Consider `CC(C)NC(=O)C1CCN(C(=O)c2cc(-c3ccccn3)[nH]n2)CC1`, for which the host macrophage viability amounted to 119%.
To `O=c1oc2ccccc2cc1-c1csc(Nc2nc3cc4c(cc3s2)OCO4)n1` belongs 112 ± 9.5%; to `O=C(CSc1nnc(NC(=O)C2CCCCC2)s1)Nc1nccs1`, 126%.
For the compound `CC(=O)C1C(c2cccc(C)c2)NC(=O)NC1(O)C(F)(F)F` (stereo unspecified), the host macrophage viability came to 112%.
For `N#CC1=C(SCC(=O)Nc2ccc(Br)cc2)NC(=O)CC1c1ccc2c(c1)OCO2` (stereo unspecified), the host macrophage viability is 124%.
In the case of `O=C(CN(C(=O)c1csnn1)c1cnc2ccccc2c1)NCc1ccc(F)cc1`, the host macrophage viability is 120%.
Under `CCSc1cccc(C(=O)Nc2sc3c(c2C#N)CCN(C(C)=O)C3)c1` stands 119%.
To `O=C(CCc1ccccc1)NCCn1nc(-c2cccs2)oc1=O` belongs 137%; to `O=C(COc1ncnc2ccccc12)Nc1c[nH]c2ccccc12`, 119%; to `Cc1ccc2nc(NC(=O)CSc3nnc4[nH]c(=O)c(C)c(C)n34)sc2c1`, 102%.
In the case of `CCOc1ccc(C(=O)NCCSc2ncc(-c3ccccc3)[nH]2)cc1`, the host macrophage viability is 119%.
`COc1cccc(C(=O)Nc2c3c(nn2-c2ccccc2C)CS(=O)C3)c1` (stereo unspecified): the host macrophage viability was 125%.
As to `CC(Nc1nc2c(S(=O)(=O)c3ccc(Cl)cc3)nnn2c2ccccc12)c1ccccc1` (stereo unspecified), the host macrophage viability was determined as 103%.
As to `Cc1cc(Nc2ccc3c(c2)OCO3)n2c(n1)nc1ccccc12`, the host macrophage viability stood at 114%.
To `COc1ccc(S(=O)(=O)Nc2cccc(-c3nc4cccnc4s3)c2)cc1F` belongs 131 ± 1.8%.
To `CN1CCN(C(CNC(=O)c2ccc(Cl)cc2)c2ccc3c(c2)OCO3)CC1` (stereo unspecified) belongs 114%.
Under `Cn1cnc(S(=O)(=O)NCc2nnc(C(=O)Nc3ccc(F)cc3F)s2)c1` stands 96.4%; under `COc1ccc(-n2c(-c3ccccc3)cn3c4c(=O)[nH]c(=O)n(C)c4nc23)cc1Cl`, 120%; under `O=C(CSc1nc(=O)n2ccccc2n1)Nc1cccc(Cl)c1`, 108%.
Take `Cc1cc(C)c2s/c(=N\C(=O)CN3C(=O)c4ccccc4C3=O)n(C)c2c1`: the host macrophage viability is 108%.
To `CCOC(=O)Cn1c(Cl)c(/C=N/NC(=O)c2ccc3ccccc3n2)sc1=O` belongs 126%; to `COc1ccc(S(=O)(=O)Nc2cccc(C(=O)Nc3nc4cc5c(cc4s3)OCO5)c2)cc1`, 134%.
To `CCOC(=O)c1nc(Cl)c2c(C)c(C)n(-c3cccc(Cl)c3)c2n1` belongs 121%; to `Cn1c(=O)[nH]c(=O)c2c1nc1n2CC(COc2ccc3ccccc3c2)O1` (stereo unspecified), 133%; to `Cc1nc(SCC(=O)Nc2sc3c(c2C#N)CCCC3)c2c3c(sc2n1)CCC3`, 113%.
Under `COc1cccc(-c2cc(=O)n3c4ccccc4n(CC(=O)NC4CCCC4)c3n2)c1` stands 136%.
Take `O=C(Nc1ccccc1-c1ccccc1)N1CCC(c2nc3ccccc3o2)CC1`: the host macrophage viability stood at 111%.
To `COCCNc1nc(-c2nnc(-c3cccc(C)c3)o2)nc2ccccc12` belongs 117%; to `c1ccc(CN2CCN(c3ncnc4[nH]cnc34)CC2)cc1`, 124%.
On to `Cn1c(CCC(=O)NC(c2ccccc2)c2cccnc2)nc2ccccc21` (stereo unspecified), for which the host macrophage viability amounted to 107%.
As to `COc1ccccc1N1CCN(c2nc(C)c(CCC(C)C)c(=O)[nH]2)CC1`, the host macrophage viability amounted to 129%.
Consider `Cc1cccc(-c2nc3c(c(SCC(=O)N4CCOCC4)n2)Cc2c(CO)cnc(C)c2O3)c1`, for which the host macrophage viability was 100%.
For `Cc1ccc(Nc2cc(N3CCN(C(=O)c4cccs4)CC3)nc(C)n2)cc1`, the host macrophage viability was found to be 95.9%.
For `O=C(Cn1cnc2c(cnn2CCO)c1=O)N1CCC(Cc2ccccc2)CC1`, the host macrophage viability is 126%.
To `COc1ccc(Cl)cc1C(=O)Nn1cnc2c(cnn2-c2ccccc2)c1=O` belongs 124%; to `Cc1cccn2c(=O)c3cc(S(=O)(=O)c4ccc(Cl)cc4)c(=N)n(Cc4ccncc4)c3nc12`, 130%.
For `Cc1ccc(C)c2sc(N(Cc3ccccn3)C(=O)c3cccc(S(C)(=O)=O)c3)nc12`, the host macrophage viability was determined as 103%.
To `COc1ccc(OC)c2[nH]c(=O)c(CCN3C(=O)c4ccccc4C3=O)cc12` belongs 102%.
Turning to `Cc1cccc(-c2noc(C)c2C(=O)NCCn2ccnc2C)c1`, the host macrophage viability stood at 116%.
With `O=C(NCc1ccccn1)C(=O)NCC(c1ccco1)N1CCc2ccccc21` (stereo unspecified), the host macrophage viability came to 120%.
Under `O=S(=O)(c1ccc(Cl)cc1)c1nnn2c1nc(NCc1ccc3c(c1)OCO3)c1sccc12` stands 113%.
As to `COc1ccc(-c2noc(N3CCC(C(=O)N4CCN(c5cc(Cl)ccc5C)CC4)CC3)n2)cc1`, the host macrophage viability is 123%.
Under `Cc1ccc2cc(C#N)c(N3CCN(C(=O)c4ccc(F)cc4)CC3)nc2c1` stands 109%; under `COc1ccccc1CNC(=O)c1sc2nc(C)nc(N3CCCC3)c2c1C`, 95.2%.
Turning to `Cc1cc(C)c2cc(CN(Cc3ccc4c(c3)OCO4)C(=O)c3ccco3)c(Cl)nc2c1`, the host macrophage viability turned out to be 110%.
On to `CCN(Cc1ccccc1)c1ncnc2c1cnn2-c1cccc(Cl)c1`, for which the host macrophage viability came out at 111%.
Turning to `Cc1ccc2cc(C)c3nn(CCNC(=O)Cc4c(C)nc(C)nc4O)c(=O)n3c2c1`, the host macrophage viability came to 118%.
For `CCc1ccc2c(c1)C(O)(C1SC(N)=NC1=O)C(=O)N2` (stereo unspecified), the host macrophage viability came out at 103%.
Under `COc1cccc(NC(=O)CCc2c(C)[nH]c3nc(NCc4ccccc4)nn3c2=O)c1` stands 123%; under `Cn1nc(C(C)(C)C)cc1C(=O)Nc1ccccc1NC(=O)c1ccccn1`, 91.4%.
With `NC(=O)CCSc1nnc(SCC(=O)c2ccccc2)s1`, the host macrophage viability is 110 ± 12%.
Under `Cc1nc(Nc2ccc(NC(=O)c3ccc4c(c3)OCO4)cc2)cc(N(C)C)n1` stands 108%; under `O=C(NC1CCN(C(=O)Nc2cccc(Cl)c2)CC1)c1ccccc1`, 106%.
To `Cc1ccc(Cc2cnc(NC(=O)c3cc4ccccc4c(=O)o3)s2)cc1` belongs 135%; to `N#Cc1ccc(C(=O)N(CCN2CCOCC2)c2nc3ccccc3s2)cc1`, 111%.
To `O=C(CSc1nc(O)c2nc[nH]c2n1)OCc1ccccc1` belongs 113%; to `Cc1ccc(N(Cc2ccc3c(c2)CN(S(=O)(=O)c2cccc(C)c2)CCO3)C(=O)C(C)C)cc1`, 87.2%; to `Cc1ccc(COc2ccc([N+](=O)[O-])cc2/C=C2\SC(=O)NC2=S)cc1`, 103%.
Consider `COc1ccc2[nH]c3nc(SCC(=O)Nc4ccc(C(=O)NC5CC5)cc4)nnc3c2c1`, for which the host macrophage viability is 109%.
Take `Cc1ccccc1C(=O)NC1CC2CCCC(C1)N2C(=S)Nc1ccccc1` (stereo unspecified): the host macrophage viability was found to be 110%.
In the case of `O=C(NCCc1csc(-c2ccc(C(F)(F)F)cc2)n1)c1ccc2c(c1)OCO2`, the host macrophage viability is 127%.
Under `Cc1ccc(C(=O)Nc2cc3c4c(c2)CCN4C(=O)CC3)cc1C` stands 108%; under `CC(=O)c1cccc(NC(=O)CSc2nnc(Cn3nnc4ccccc43)n2C)c1`, 108%; under `CCCn1c(=O)c(=O)[nH]c2cc(-c3noc(COc4ccccc4)n3)ccc21`, 111%.
To `O=C1C(=O)N(CCOc2ccc(Cl)cc2)c2ccccc21` belongs 110%; to `CC1CCN(S(=O)(=O)c2ccc(NC(=S)NC(=O)C3CC3)cc2)CC1`, 107%.
To `O=C(NCc1ccccc1)N1CCCC1c1nc(-c2cnccn2)n[nH]1` (stereo unspecified) belongs 105%.
For the compound `CCOc1ccc2nc(NC(=O)CSc3nnc4c(n3)[nH]c3ccccc34)sc2c1`, the host macrophage viability is 104%.
To `Cc1ccc(Nc2c(C(=O)NC(C)CCc3ccccc3)cnc3c2c(C)nn3C)cc1` (stereo unspecified) belongs 69.4%; to `Cc1ccc(C)c(S(=O)(=O)NCCn2c(C(F)(F)F)nc3cccnc32)c1`, 117%; to `CSc1nc2ccc3nc(NC(=O)c4cc5ccccc5oc4=O)sc3c2s1`, 106 ± 3.9%.
To `Cc1cc(CNC(=O)Cn2cnc3sc(C)cc3c2=O)c2[nH]c(C)c(C)c2c1` belongs 112%.
For the compound `O=C(Cn1nc(-c2ccccc2)c2cnc3ccc(F)cc3c21)NC1CCCC1`, the host macrophage viability came out at 123%.
Under `C=CCN1C(=O)SC(CC(=O)Nc2ccc(C)cc2)C1=O` (stereo unspecified) stands 112%; under `NC(=O)C1CCN(C(=O)CCCCCn2c(=O)[nH]c3ccsc3c2=O)CC1`, 126%.
To `COc1ccc(C2=NN(S(C)(=O)=O)C(c3cn(-c4ccccc4)nc3-c3ccc(C)cc3)C2)cc1` (stereo unspecified) belongs 91.2%; to `NC(=O)COc1ccc2c(-c3cc4cc(Cl)ccc4oc3=O)cc(=O)oc2c1`, 109%.
